B1: HK2 (Hexokinase2), endogenous in mouse embryonic fibroblasts (enzyme, UniProt O08528 1-917)
chain: MIASHMIACLFTELNQNQVQKVDQYLYHMRLSDETLLEISRRFRKEMEKGLGATTHPTAAVKMLPTFVRSTPDGTEHGEFLALDLGGTNFRVLRVRVTDNGLQRVEMENQIYAIPEDIMRGSGTQLFDHIAECLANFMDKLQIKEKKLPLGFTFSFPCHQTKLDESFLVSWTKGFKSSGVEGRDVVDLIRKAIQRRGDFDIDIVAVVNDTVGTMMTCGYDDQNCEIGLIVGTGSNACYMEEMRHIDMVEGDEGRMCINMEWGAFGDDGTLNDIRTEFDREIDMGSLNPGKQLFEKMISGMYMGELVRLILVKMAKAELLFQGKLSPELLTTGSFETKDVSDIEDDKDGIQKAYQILVRLGLSPLQEDCVATHRICQIVSTRSASLCAATLAAVLWRIKENKGEERLRSTIGVDGSVYKKHPHFAKRLHKAVRRLVPDCDVRFLRSEDGSGKGAAMVTAVAYRLADQHRARQKTLESLKLSHEQLLEVKRRMKVEMEQGLSKETHEAAPVKMLPTYVCATPDGTEKGDFLALDLGGTNFRVLLVRVRNGKRRGVEMHNKIYSIPQEVMHGTGEELFDHIVQCIADFLEYMGMKGVSLPLGFTFSFPCQQNSLDQSILLKWTKGFKASGCEGEDVVTLLKEAIRRREEFDLDVVAVVNDTVGTMMTCGYEDPHCEVGLIVGTGSNACYMEEMRNVELVDGEEGRMCVNMEWGAFGDNGCLDDLRTVFDVAVDELSLNPGKQRFEKMISGMYLGEIVRNILIDFTKRGLLFRGRISERLKTRGIFETKFLSQIESDCLALLQVRAILRHLGLESTCDDSIIVKEVCTVVARRAAQLCGAGMAAVVDKIRENRGLDNLKVTVGVDGTLYKLHPHFAKVMHETVRDLAPKCDVSFLESEDGSGKGAALITAVACRIREAGQR
B2: MEST (Mesoderm specific transcript), endogenous in mouse embryonic fibroblasts (protein, UniProt Q07646 1-335)
chain: MVRRDRLRRMREWWVQVGLLAVPLLAAYLHIPPPQLSPALHSWKTSGKFFTYKGLRIFYQDSVGVVGSPEIVVLLHGFPTSSYDWYKIWEGLTLRFHRVIALDFLGFGFSDKPRPHQYSIFEQASIVESLLRHLGLQNRRINLLSHDYGDIVAQELLYRYKQNRSGRLTIKSLCLSNGGIFPETHRPLLLQKLLKDGGVLSPILTRLMNFFVFSRGLTPVFGPYTRPTESELWDMWAVIRNNDGNLVIDSLLQYINQRKKFRRRWVGALASVSIPIHFIYGPLDPINPYPEFLELYRKTLPRSTVSILDDHISHYPQLEDPMGFLNAYMGFINSF
B3: ACLY (ATP Citrate Lyase), endogenous in mouse embryonic fibroblasts (enzyme, UniProt Q91V92 1-1091)
chain: MSAKAISEQTGKELLYKYICTTSAIQNRFKYARVTPDTDWAHLLQDHPWLLSQSLVVKPDQLIKRRGKLGLVGVNLSLDGVKSWLKPRLGHEATVGKAKGFLKNFLIEPFVPHSQAEEFYVCIYATREGDYVLFHHEGGVDVGDVDAKAQKLLVGVDEKLNTEDIKRHLLVHAPEDKKEVLASFISGLFNFYEDLYFTYLEINPLVVTKDGVYILDLAAKVDATADYICKVKWGDIEFPPPFGREAYPEEAYIADLDAKSGASLKLTLLNPKGRIWTMVAGGGASVVYSDTICDLGGVNELANYGEYSGAPSEQQTYDYAKTILSLMTREKHPEGKILIIGGSIANFTNVAATFKGIVRAIRDYQGPLKEHEVTIFVRRGGPNYQEGLRVMGEVGKTTGIPIHVFGTETHMTAIVGMALGHRPIPNQPPTAAHTANFLLNASGSTSTPAPSRTASFSESRADEVAPAKKAKPAMPQGKSATLFSRHTKAIVWGMQTRAVQGMLDFDYVCSRDEPSVAAMVYPFTGDHKQKFYWGHKEILIPVFKNMADAMKKHPEVDVLINFASLRSAYDSTMETMNYAQIRTIAIIAEGIPEALTRKLIKKADQKGVTIIGPATVGGIKPGCFKIGNTGGMLDNILASKLYRPGSVAYVSRSGGMSNELNNIISRTTDGVYEGVAIGGDRYPGSTFMDHVLRYQDTPGVKMIVVLGEIGGTEEYKICRGIKEGRLTKPVVCWCIGTCATMFSSEVQFGHAGACANQASETAVAKNQALKEAGVFVPRSFDELGEIIQSVYEDLVAKGAIVPAQEVPPPTVPMDYSWARELGLIRKPASFMTSICDERGQELIYAGMPITEVFKEEMGIGGVLGLLWFQRRLPKYSCQFIEMCLMVTADHGPAVSGAHNTIICARAGKDLVSSLTSGLLTIGDRFGGALDAAAKMFSKAFDSGIIPMEFVNKMKKEGKLIMGIGHRVKSINNPDMRVQILKDFVKQHFPATPLLDYALEVEKITTSKKPNLILNVDGFIGVAFVDMLRNCGSFTREEADEYVDIGALNGIFVLGRSMGFIGHYLDQKRLKQGLYRHPWDDISYVLPEHMSM

The chains behind the UniProt entries cited, without tags or fusion partners.
UniProt Q3URU2: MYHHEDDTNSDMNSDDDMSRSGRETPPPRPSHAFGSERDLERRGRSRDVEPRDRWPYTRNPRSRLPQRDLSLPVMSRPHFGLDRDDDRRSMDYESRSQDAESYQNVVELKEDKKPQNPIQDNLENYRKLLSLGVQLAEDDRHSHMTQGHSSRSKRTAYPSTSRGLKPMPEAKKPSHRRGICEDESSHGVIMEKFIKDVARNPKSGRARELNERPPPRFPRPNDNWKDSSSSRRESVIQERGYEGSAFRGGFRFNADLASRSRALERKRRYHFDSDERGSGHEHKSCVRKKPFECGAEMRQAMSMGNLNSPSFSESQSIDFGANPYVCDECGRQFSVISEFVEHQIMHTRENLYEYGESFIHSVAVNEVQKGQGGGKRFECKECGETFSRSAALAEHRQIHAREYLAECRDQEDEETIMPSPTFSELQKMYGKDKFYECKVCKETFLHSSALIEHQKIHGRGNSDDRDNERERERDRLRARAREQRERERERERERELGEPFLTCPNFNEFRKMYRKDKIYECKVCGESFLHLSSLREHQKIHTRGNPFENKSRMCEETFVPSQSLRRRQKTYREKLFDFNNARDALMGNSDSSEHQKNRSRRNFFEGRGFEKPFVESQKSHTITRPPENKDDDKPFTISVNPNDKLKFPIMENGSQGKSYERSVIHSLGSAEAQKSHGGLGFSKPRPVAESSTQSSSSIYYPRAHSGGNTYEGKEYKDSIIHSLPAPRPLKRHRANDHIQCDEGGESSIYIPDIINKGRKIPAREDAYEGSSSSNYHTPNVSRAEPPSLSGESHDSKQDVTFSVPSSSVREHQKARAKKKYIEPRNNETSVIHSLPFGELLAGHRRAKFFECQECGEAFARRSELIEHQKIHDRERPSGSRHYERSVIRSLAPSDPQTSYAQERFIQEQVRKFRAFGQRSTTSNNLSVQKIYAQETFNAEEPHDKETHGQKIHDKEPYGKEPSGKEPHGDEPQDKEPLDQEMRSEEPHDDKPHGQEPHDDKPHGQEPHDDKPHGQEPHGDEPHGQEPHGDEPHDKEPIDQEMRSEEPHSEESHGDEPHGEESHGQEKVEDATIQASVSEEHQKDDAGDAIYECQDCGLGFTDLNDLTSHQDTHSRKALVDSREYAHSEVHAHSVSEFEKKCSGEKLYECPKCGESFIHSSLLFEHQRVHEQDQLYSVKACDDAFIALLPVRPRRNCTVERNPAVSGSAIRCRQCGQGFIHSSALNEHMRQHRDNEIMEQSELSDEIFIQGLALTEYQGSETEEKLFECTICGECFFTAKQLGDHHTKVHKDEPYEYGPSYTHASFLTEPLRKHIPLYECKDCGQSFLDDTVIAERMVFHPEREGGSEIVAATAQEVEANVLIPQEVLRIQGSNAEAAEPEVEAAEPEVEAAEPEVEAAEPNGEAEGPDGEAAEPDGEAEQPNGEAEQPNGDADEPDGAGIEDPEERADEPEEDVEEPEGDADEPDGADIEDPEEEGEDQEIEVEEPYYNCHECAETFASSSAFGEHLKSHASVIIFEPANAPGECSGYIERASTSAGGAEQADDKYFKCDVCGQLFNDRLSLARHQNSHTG

Results on three molecules are retold here after paper PMC5127583.

No constants are given. Whether binding was seen depends on the method and setting. Binding seen in cells or lysates may run through a third protein. Here binding means that the protein was enriched with, or labelled near, the bait; the list need not be complete.

This assay has as its target PEG3 (Paternally Expressed Gene 3) protein, endogenous in mouse embryonic fibroblasts (mouse (endogenous in MEF)) (UniProt Q3URU2). Description: affinity purification with mass spectrometry; extracts of WT and Peg3 KO MEF cells (Pierce IP Lysis Buffer: 25 mM Tris-HCl pH 7.4, 150 mM NaCl, 1% NP-40, 1 mM EDTA, 5% glycerol) immunoprecipitated with anti-PEG3 antibody at 4°C; TMT LC-MS/MS; three WT against three KO samples.
As for B1, the binding entry was “binds”.

For B2, the binding entry was “binds”.

For the molecule B3, the binding result was “binds”.
